# According to PMC12670160, “A drug-repurposing screen of FDA- and EMA-approved drugs identifies two NF-κB inhibitors active against eumycetoma” (Journal of Antimicrobial Chemotherapy, 2025):
# Counter-ions that a name gives are not always drawn. About 130 (2.5%) of roughly 5,300 compounds showed an effect of 50% or more. The list shows a part of the results.
# Test system: M. mycetomatis strain mm55
# Conditions: primary screen, metabolic activity vs growth control; 96 h, 2 µM; inhibitor
row,Structure (SMILES),% viability [%]
1,"Nc1ncnc2c1c(COc1cccc(Cl)c1)nn2C1CCOCC1 [ONC0002547, pf4800567]",64.88
2,"COCCOc1ccc(N2CCN(CCn3ncc4c3nc(N)n3nc(-c5ccco5)nc43)CC2)cc1 [ONC0002031, preladenant]",74.73
3,"Cc1cc(-c2ccc(/N=N/c3ccc4c(S(=O)(=O)O)cc(S(=O)(=O)O)c(N)c4c3O)c(C)c2)ccc1/N=N/c1ccc2c(S(=O)(=O)O)cc(S(=O)(=O)O)c(N)c2c1O [ONC0003296, evans blue]",49.05
4,"NC(=O)CC[C@@H]1NC(=O)[C@H](Cc2ccccc2)NC(=O)[C@H](Cc2ccc(O)cc2)NC(=O)[C@@H](N)CSSC[C@@H](C(=O)N2CCC[C@H]2C(=O)N[C@H](CCCN=C(N)N)C(=O)NCC(N)=O)NC(=O)[C@H](CC(N)=O)NC1=O [ONC0003831, argipressine]",67.57
5,"CNC(=N)NCCC[C@H](N)C(=O)O [ONC0003791, targinine]",61.21
6,"C/C=C/C/C=C/CCC(=O)[C@H]1O[C@H]1C(N)=O [ONC0005470, cerulenin]",138.4
7,"CC(=O)NCCc1c[nH]c2ccccc12 [ONC0000123, nacetyltryptamine]",91.61
8,"CNC(=O)c1ccc(C)c(-n2c(C)cc(OCc3ccc(F)cc3F)c(Br)c2=O)c1 [ONC0005029, ph797804]",106
9,"Cc1cc(OCc2nnc(SC3CCCC3)n2-c2cccnc2)ccc1-c1ccc(S(C)(=O)=O)cc1 [ONC0004377, nms873]",158.9
10,"CCCCCCCCCCCCCCCC=O [ONC0003839, 1hexadecanal]",62.25
11,"Cc1ccc(-n2nc(C(C)(C)C)cc2NC(=O)Nc2ccc(OCCN3CCOCC3)c3ccccc23)cc1 [ONC0004627, birb 796 doramapimod]",68.25
12,"CC(C)NCC(O)c1ccccc1Cl (centres unmarked) [ONC0004642, clorprenaline hcl]",103.7
13,"NC(=O)c1cccc(N)c1 [ONC0003114, 3aminobenzamide]",100.4
14,"C=CCSCC1Nc2cc(Cl)c(S(N)(=O)=O)cc2S(=O)(=O)N1 (centres unmarked) [ONC0003797, althiazide]",64.29
15,"CCCCCCCCCCCC[N+](C)(C)CCOc1ccccc1 [ONC0004564, domiphen bromide]",66.51
16,"COc1cc2nc(N3CCC(N4CCCCC4)CC3)nc(NC3CCCCCC3)c2cc1OC [ONC0000205, c021]",61.22
17,"CNCCN(C)Cc1c[nH]nc1-c1ccc(O[C@H]2C[C@H](OCCC3CCOCC3)C2)cc1.Cl [ONC0000962, epz020411 hydrochloride]",79.33

# Given with bars between the fields: five of the compounds above.
row | Structure (SMILES) | % viability [%]
12 | CC(C)NCC(O)c1ccccc1Cl (centres unmarked) [ONC0004642, clorprenaline hcl] | 103.7
13 | NC(=O)c1cccc(N)c1 [ONC0003114, 3aminobenzamide] | 100.4
14 | C=CCSCC1Nc2cc(Cl)c(S(N)(=O)=O)cc2S(=O)(=O)N1 (centres unmarked) [ONC0003797, althiazide] | 64.29
15 | CCCCCCCCCCCC[N+](C)(C)CCOc1ccccc1 [ONC0004564, domiphen bromide] | 66.51
16 | COc1cc2nc(N3CCC(N4CCCCC4)CC3)nc(NC3CCCCCC3)c2cc1OC [ONC0000205, c021] | 61.22
